Results deposited as PubChem BioAssay AID652272 (Drosophila RNAi Screening Center, 2013)

Aim: 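Finding fly genes that regulate Hedgehog signal transduction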 (primary screen)
Cell system: Drosophila clone 8 (Cl8) cells
Reagents: long dsRNA against Drosophila genes
Read-out: 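Firefly light from a Hedgehog-responsive ptc promoter reporter and Renilla reference light, both read on a plate reader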
Direction: firefly Hh reporter signal: higher = more ptc reporter light; Renilla reference signal: higher = more Renilla control light
Rule for the call: 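Hit when the z-score averaged over two replicates is under -2 or over +3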
Meaning of the calls: active = hit: reporter lowered or raised; inactive = not a hit
In all, the deposit lists about 21,000 reagents; shown is an unselected part of those with a known target gene and a result. Over the whole deposit, 503 (2.4%) were called active. 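Raw plate light values, not normalised; calls rest on replicate z-scores that were not deposited; hits include reporter decreases as well as increases.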 Reagents against one gene are numbered here. Names joined by + are all predicted targets of the reagent. Not given: the amount of reagent, the time to read-out.

The first 7 records, ahead of the listing:
| Gene | dsRNA no. | firefly Hh reporter signal, replicate 1 | firefly Hh reporter signal, replicate 2 | firefly Hh reporter signal, replicate 3 | Renilla reference signal, replicate 1 | Renilla reference signal, replicate 2 | activity call |
| --- | --- | --- | --- | --- | --- | --- | --- |
| CG43897 | 1 | 69462 | 59462 | 46881 | 3827 | 2202 | active |
| CG43897 | 2 | 36535 | 21537 | 23805 | 3015 | 1561 | inactive |
| CG43897 | 3 | 33697 | 56336 | 79574 | 5785 | 5280 | inactive |
| sick | 1 | 56986 | 51533 | – | 1506 | 4987 | inactive |
| sick | 2 | 61867 | 64544 | – | 1714 | 5498 | inactive |
| sick | 3 | 65255 | 53536 | – | 1789 | 5200 | inactive |
| sick | 4 | 72954 | 41297 | – | 2085 | 3560 | inactive |

The list itself, repeating the preview:
| Gene | dsRNA no. | firefly Hh reporter signal, replicate 1 | firefly Hh reporter signal, replicate 2 | firefly Hh reporter signal, replicate 3 | Renilla reference signal, replicate 1 | Renilla reference signal, replicate 2 | activity call |
| --- | --- | --- | --- | --- | --- | --- | --- |
| CG43897 | 1 | 69462 | 59462 | 46881 | 3827 | 2202 | active |
| CG43897 | 2 | 36535 | 21537 | 23805 | 3015 | 1561 | inactive |
| CG43897 | 3 | 33697 | 56336 | 79574 | 5785 | 5280 | inactive |
| sick | 1 | 56986 | 51533 | – | 1506 | 4987 | inactive |
| sick | 2 | 61867 | 64544 | – | 1714 | 5498 | inactive |
| sick | 3 | 65255 | 53536 | – | 1789 | 5200 | inactive |
| sick | 4 | 72954 | 41297 | – | 2085 | 3560 | inactive |
| sick | 5 | 76834 | 84194 | – | 1340 | 4157 | inactive |
| sick | 6 | 77986 | 54921 | – | 1040 | 4461 | inactive |
| ldd | 1 | 82208 | 1.77e5 | – | 2833 | 8509 | inactive |
| CG15034 | 1 | 73171 | 2.92e5 | – | 2925 | 10054 | inactive |
| bves | 1 | 99776 | 1.66e5 | – | 3669 | 6672 | inactive |
| bves | 2 | 1.12e5 | 2.42e5 | – | 4563 | 10628 | inactive |
| bves | 3 | 1.09e5 | 2.32e5 | – | 4299 | 10539 | inactive |
| raskol | 1 | 4.19e5 | 2.47e5 | – | 26707 | 5797 | inactive |
| raskol | 2 | 1.62e5 | 3.29e5 | – | 5717 | 12529 | inactive |
| raskol | 3 | 98445 | 2.40e5 | – | 3495 | 9189 | inactive |
| raskol | 4 | 32620 | 32584 | – | 1971 | 1381 | inactive |
| Pi3K92E | 1 | 1.07e5 | 60725 | – | 4779 | 2880 | inactive |
| CG13023 | 1 | 2.16e5 | – | – | 4592 | – | inactive |
| CG13023 | 2 | 1.60e5 | – | – | 8753 | 4453 | inactive |
| CG3880 | 1 | 1.07e5 | 65521 | – | 2692 | 6155 | inactive |
| bero | 1 | 1.10e5 | 37421 | – | 3219 | 4602 | inactive |
| Arfip | 1 | 1.24e5 | 1.07e5 | – | 4938 | 3747 | inactive |
| CG3815 | 1 | 1.36e5 | 1.01e5 | – | 3360 | 2433 | inactive |
| CTCF | 1 | 1.06e5 | 47316 | – | 3312 | 1760 | inactive |
| CG45105 | 1 | 35436 | 39653 | – | 1232 | 1385 | inactive |
| CG45105 | 2 | 48928 | 38051 | – | 2086 | 1101 | inactive |
| bumpel | 1 | 90614 | 1.10e5 | – | 3564 | 3152 | inactive |
| tbrd-3 | 1 | 64688 | 62304 | – | 1745 | 6245 | inactive |
| CG11634 | 1 | 93736 | 42972 | – | 2631 | 4373 | inactive |
| CR43142 | 1 | 6.16e5 | 2.31e5 | – | 30781 | 9005 | inactive |
| CG8065 | 1 | 49381 | 59184 | 56877 | 5954 | 3184 | inactive |
| mod | 1 | 72887 | 73539 | – | 2137 | 2576 | inactive |
| CG8726 | 1 | 76076 | 55008 | – | 3378 | 2295 | inactive |
| tos | 1 | 59778 | 24342 | – | 2163 | 1051 | inactive |
| Sptz | 1 | 94577 | 86440 | – | 3257 | 2600 | inactive |
| dpr11 | 1 | 49896 | 71954 | – | 1803 | 2002 | inactive |
| dpr11 | 2 | 1.03e5 | 1.38e5 | – | 3931 | 3945 | inactive |
| dpr11 | 3 | 70595 | 1.05e5 | – | 2599 | 3244 | inactive |
| CG13877 + pyx | 1 | 1.00e5 | 51762 | – | 2916 | 3655 | inactive |
| Or92a | 1 | 5.11e5 | 93306 | – | 28357 | 2509 | inactive |
| CG31823 | 1 | 80480 | 59915 | – | 2385 | 5691 | inactive |
| rogdi | 1 | 59264 | 75865 | – | 2525 | 2742 | inactive |
| Pmm2 | 1 | 42662 | 33796 | 63680 | 3452 | 4582 | inactive |
| nvy | 1 | 1.28e5 | 3.84e5 | 1.10e5 | 5648 | 24562 | inactive |
| Skel | 1 | 56211 | 1.03e5 | – | 1932 | 2784 | inactive |
| Skel | 2 | 85715 | 58376 | – | 3717 | 2549 | inactive |
| cm + Inx7 | 1 | 75350 | 75034 | – | 1667 | 1712 | inactive |
| ifc | 1 | 1.41e5 | 72596 | – | 5491 | 3586 | inactive |
| Ccp84Ac | 1 | 1.05e5 | 1.47e5 | – | 4389 | 4811 | inactive |
| ppk27 | 1 | 1.12e5 | 97488 | – | 4048 | 6438 | inactive |
| RNF220 | 1 | 1.27e5 | 90226 | – | 5526 | 3928 | inactive |
| Sfp26Ad | 1 | 3.83e5 | 2.34e5 | – | 18903 | 9864 | inactive |
| Pi3K68D | 1 | 85168 | 65987 | – | 3610 | 2917 | inactive |
| RpS21 | 1 | 3.31e5 | 39768 | – | 3296 | 3296 | active |
| Mcm2 | 1 | 86580 | 1.35e5 | – | 1960 | 3728 | inactive |
